Source: publication PMC5997449
No constants are given. Whether binding was seen depends on the method and setting. Binding seen in cells or lysates may run through a third protein. Sequences can lack the tags named with a protein.

The chains behind the UniProt entries cited, without tags or fusion partners. Where a name states a change or a piece, a line headed by the entry shows the natural chain unless it says otherwise.
UniProt A2AGH6: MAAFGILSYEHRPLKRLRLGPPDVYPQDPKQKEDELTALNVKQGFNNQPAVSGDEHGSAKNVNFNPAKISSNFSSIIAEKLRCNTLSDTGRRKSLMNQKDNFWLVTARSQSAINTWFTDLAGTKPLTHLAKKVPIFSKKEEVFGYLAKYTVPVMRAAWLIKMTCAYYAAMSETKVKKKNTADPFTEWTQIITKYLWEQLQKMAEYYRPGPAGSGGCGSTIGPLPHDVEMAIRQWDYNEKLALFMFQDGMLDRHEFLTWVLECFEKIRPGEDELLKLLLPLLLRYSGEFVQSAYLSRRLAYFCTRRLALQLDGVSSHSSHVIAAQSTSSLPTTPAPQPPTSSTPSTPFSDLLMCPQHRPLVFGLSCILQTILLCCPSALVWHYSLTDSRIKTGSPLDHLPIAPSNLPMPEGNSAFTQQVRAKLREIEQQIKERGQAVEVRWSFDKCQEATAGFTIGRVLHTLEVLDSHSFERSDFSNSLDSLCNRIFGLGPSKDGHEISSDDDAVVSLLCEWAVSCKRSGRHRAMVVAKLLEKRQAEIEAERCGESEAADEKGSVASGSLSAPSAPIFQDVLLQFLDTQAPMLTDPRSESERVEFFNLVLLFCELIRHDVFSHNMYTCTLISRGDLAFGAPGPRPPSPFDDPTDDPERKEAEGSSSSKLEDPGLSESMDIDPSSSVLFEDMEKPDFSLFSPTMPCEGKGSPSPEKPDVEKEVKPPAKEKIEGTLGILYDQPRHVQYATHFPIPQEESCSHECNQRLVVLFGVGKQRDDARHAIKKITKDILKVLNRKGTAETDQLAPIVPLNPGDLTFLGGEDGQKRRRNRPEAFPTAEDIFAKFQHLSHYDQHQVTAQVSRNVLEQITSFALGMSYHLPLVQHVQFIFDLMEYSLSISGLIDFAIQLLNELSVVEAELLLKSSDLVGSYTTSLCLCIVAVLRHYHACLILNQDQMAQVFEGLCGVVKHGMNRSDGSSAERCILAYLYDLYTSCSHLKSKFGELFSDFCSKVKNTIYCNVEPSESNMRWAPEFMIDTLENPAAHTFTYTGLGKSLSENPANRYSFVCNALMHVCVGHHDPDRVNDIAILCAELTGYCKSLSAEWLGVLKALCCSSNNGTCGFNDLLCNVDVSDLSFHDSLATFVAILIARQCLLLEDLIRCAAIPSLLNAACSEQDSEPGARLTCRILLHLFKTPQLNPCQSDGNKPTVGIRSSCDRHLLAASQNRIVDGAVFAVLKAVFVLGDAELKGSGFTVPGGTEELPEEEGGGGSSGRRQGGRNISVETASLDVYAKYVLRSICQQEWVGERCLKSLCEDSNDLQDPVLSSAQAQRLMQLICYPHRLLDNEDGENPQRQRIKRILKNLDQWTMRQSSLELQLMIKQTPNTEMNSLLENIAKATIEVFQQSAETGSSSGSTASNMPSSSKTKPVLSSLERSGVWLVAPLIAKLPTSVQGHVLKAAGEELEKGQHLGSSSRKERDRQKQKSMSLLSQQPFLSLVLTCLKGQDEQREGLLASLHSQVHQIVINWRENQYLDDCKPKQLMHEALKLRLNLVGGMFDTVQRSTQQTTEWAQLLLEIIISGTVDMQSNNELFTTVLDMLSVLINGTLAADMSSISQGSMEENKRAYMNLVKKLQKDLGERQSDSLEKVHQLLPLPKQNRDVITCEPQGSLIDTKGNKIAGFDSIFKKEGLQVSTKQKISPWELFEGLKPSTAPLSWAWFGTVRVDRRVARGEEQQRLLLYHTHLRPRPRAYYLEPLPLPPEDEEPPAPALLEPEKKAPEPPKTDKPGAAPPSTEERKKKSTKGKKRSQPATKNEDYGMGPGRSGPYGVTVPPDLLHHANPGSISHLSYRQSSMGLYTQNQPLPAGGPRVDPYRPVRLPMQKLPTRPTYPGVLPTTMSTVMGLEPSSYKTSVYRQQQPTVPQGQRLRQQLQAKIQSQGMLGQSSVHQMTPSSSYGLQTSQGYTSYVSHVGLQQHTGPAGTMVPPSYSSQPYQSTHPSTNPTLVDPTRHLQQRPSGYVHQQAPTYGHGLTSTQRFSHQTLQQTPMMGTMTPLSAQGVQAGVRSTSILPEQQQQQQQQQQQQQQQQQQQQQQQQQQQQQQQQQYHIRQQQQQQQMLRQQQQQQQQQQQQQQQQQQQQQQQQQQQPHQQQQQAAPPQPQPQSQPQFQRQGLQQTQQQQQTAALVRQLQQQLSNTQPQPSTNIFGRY
UniProt Q5DTM8: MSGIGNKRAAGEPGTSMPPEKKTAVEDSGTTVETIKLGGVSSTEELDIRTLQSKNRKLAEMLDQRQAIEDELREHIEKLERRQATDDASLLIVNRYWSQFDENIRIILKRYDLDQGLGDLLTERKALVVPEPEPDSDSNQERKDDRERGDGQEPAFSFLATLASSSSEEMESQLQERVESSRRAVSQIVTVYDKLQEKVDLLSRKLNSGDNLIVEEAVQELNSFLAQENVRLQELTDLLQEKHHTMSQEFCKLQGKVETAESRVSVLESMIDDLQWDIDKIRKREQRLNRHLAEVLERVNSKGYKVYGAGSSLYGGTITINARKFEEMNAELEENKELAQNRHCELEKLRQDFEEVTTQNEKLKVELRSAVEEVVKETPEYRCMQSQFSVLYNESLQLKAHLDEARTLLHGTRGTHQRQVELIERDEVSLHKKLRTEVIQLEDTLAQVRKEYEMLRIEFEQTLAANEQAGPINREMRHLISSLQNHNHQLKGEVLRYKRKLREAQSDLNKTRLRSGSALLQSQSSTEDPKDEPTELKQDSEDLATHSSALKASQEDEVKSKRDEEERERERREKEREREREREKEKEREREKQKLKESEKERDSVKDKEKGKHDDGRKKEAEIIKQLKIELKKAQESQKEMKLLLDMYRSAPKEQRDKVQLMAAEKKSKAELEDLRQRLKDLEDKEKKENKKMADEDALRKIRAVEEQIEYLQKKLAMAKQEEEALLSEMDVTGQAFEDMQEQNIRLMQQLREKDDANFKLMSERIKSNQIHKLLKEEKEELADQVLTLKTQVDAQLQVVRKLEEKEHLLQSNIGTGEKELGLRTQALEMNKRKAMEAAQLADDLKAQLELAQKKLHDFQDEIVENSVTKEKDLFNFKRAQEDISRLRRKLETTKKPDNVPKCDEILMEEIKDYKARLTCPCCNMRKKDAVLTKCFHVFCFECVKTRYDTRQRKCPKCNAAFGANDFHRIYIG

How the values were obtained:
[1] = target: T1, FS2-FBXL19 (epitope-tagged wild-type FBXL19, stable mouse ES cell line) (mouse) (UniProt Q6PB97); test: pull-down; FS2-FBXL19 and empty vector control purifications (StrepTactin resin) from ES cell nuclear extract, benzonase, western blot
T1 sequence: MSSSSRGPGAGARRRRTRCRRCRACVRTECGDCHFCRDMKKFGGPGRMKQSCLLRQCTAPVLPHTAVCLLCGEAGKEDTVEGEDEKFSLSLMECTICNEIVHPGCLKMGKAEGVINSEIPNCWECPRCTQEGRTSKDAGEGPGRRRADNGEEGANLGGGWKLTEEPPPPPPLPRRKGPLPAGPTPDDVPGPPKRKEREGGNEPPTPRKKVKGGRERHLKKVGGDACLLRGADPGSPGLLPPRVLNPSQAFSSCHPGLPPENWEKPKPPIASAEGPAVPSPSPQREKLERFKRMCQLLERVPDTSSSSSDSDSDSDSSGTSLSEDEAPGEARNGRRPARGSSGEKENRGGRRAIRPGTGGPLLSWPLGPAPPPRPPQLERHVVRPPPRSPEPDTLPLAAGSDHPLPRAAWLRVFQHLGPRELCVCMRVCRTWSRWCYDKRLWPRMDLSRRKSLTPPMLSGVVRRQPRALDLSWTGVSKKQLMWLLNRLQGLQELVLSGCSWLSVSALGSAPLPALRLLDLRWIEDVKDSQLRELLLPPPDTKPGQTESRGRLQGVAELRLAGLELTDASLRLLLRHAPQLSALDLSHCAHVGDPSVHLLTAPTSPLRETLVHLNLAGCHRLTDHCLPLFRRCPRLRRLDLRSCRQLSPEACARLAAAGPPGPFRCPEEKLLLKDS

[2] = target: MED12 (mouse (endogenous in ES cells)) (UniProt A2AGH6); test: co-IP; endogenous IP of FBXL19, CDK8 and MED12 from 600 ug nuclear extract of T7 knock-in ES cells in BC150 (150 mM KCl), 25U benzonase, protein A agarose, 4 C; control IP anti-HA; western blot
[3] = target: T2, CDK8 (mouse (endogenous in ES cells)) (UniProt Q8R3L8); test: as above
T2 sequence: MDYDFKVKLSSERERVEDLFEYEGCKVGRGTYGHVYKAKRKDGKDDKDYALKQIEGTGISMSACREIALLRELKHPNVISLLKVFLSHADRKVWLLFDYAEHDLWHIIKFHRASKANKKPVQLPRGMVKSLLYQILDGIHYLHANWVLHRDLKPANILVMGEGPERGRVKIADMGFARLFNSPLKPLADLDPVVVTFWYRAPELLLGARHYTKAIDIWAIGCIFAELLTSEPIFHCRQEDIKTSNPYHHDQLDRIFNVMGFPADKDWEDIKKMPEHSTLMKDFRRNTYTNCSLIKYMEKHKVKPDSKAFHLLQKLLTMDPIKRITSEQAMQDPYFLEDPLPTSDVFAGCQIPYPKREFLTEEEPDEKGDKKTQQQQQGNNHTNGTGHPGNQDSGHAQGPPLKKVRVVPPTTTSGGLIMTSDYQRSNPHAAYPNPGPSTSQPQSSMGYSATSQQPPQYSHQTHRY

“RNF20/40 E3 ubiquitin ligase (from UniProt Q5DTM8 1-973; Q3U319 1-1001) (complex)” was tested, and the binding [1] was “no binding”.

B1: Endogenous FBXL19 tagged with 3xT7-2xStrepII by knock-in (T7-FBXL19) (protein, UniProt Q6PB97 1-674)
chain: MSSSSRGPGAGARRRRTRCRRCRACVRTECGDCHFCRDMKKFGGPGRMKQSCLLRQCTAPVLPHTAVCLLCGEAGKEDTVEGEDEKFSLSLMECTICNEIVHPGCLKMGKAEGVINSEIPNCWECPRCTQEGRTSKDAGEGPGRRRADNGEEGANLGGGWKLTEEPPPPPPLPRRKGPLPAGPTPDDVPGPPKRKEREGGNEPPTPRKKVKGGRERHLKKVGGDACLLRGADPGSPGLLPPRVLNPSQAFSSCHPGLPPENWEKPKPPIASAEGPAVPSPSPQREKLERFKRMCQLLERVPDTSSSSSDSDSDSDSSGTSLSEDEAPGEARNGRRPARGSSGEKENRGGRRAIRPGTGGPLLSWPLGPAPPPRPPQLERHVVRPPPRSPEPDTLPLAAGSDHPLPRAAWLRVFQHLGPRELCVCMRVCRTWSRWCYDKRLWPRMDLSRRKSLTPPMLSGVVRRQPRALDLSWTGVSKKQLMWLLNRLQGLQELVLSGCSWLSVSALGSAPLPALRLLDLRWIEDVKDSQLRELLLPPPDTKPGQTESRGRLQGVAELRLAGLELTDASLRLLLRHAPQLSALDLSHCAHVGDPSVHLLTAPTSPLRETLVHLNLAGCHRLTDHCLPLFRRCPRLRRLDLRSCRQLSPEACARLAAAGPPGPFRCPEEKLLLKDS
B1 was tested, and the binding [2] was “no binding” and the binding [3] was “no binding”.
